Columns and labels:
Type in all cases: cell-based
[1] = test system: MCF-7/ADR breast cancer cell line; assay: MTT antiproliferative assay, MCF-7/ADR
[2] = test system: MDA-MB-231/ADR breast cancer cell line; assay: MTT antiproliferative assay, MDA-MB-231/ADR
[3] = test system: MCF-7 breast cancer cell line; assay: MTT antiproliferative assay, MCF-7
[4] = test system: MDA-MB-231 breast cancer cell line; assay: MTT antiproliferative assay, MDA-MB-231

Compound	RI1: resistance index IC50(MCF-7/ADR)/IC50(MCF-7) [1]	RI2: resistance index IC50(MDA-MB-231/ADR)/IC50(MDA-MB-231) [2]	SI1: selectivity index IC50(MCF-10A)/IC50(MCF-7) [3]	SI2: selectivity index IC50(MCF-10A)/IC50(MDA-MB-231) [4]
CCON=C1C(=O)N(CCOC2O[C@@H]3O[C@@]4(C)CC[C@H]5[C@H](C)CC[C@@H]([C@H]2C)[C@@]35OO4)c2ccc(C)cc21 (stereo partly drawn) [Hybrid 7i, 3-(Ethoxyimino)-5-methyl-1-(2-(((3R,5aS,6R,8aS,9R,12R,12aR)-3,6,9-trimethyldecahydro-12H-3,12-epoxy[1,2]dioxepino[4,3-i]isochromen-10-yl)oxy)ethyl)indolin-2-one]	0.89	1.03	–	–
COc1cccc2c1C(=O)c1c(O)c3c(c(O)c1C2=O)C[C@@](O)(C(=O)CO)C[C@@H]3O[C@H]1C[C@H](N)[C@H](O)[C@H](C)O1 [ADR, Adriamycin, reference compound]	>5.29	>22.42	–	–
Cc1ccc2c(c1)C(=NNC(N)=S)C(=O)N2CCCOC1O[C@@H]2O[C@@]3(C)CC[C@H]4[C@H](C)CC[C@@H]([C@H]1C)[C@@]24OO3 (stereo partly drawn) [Hybrid 7f, 2-(5-Methyl-2-oxo-1-(3-(((3R,5aS,6R,8aS,9R,12R,12aR)-3,6,9-trimethyldecahydro-12H-3,12-epoxy[1,2]dioxepino[4,3-i]isochromen-10-yl)oxy)propyl)indolin-3-ylidene)hydrazine-1-carbothioamide]	0.78	1.06	–	–
C[C@@H]1CC[C@H]2[C@@H](C)C(=O)O[C@@H]3O[C@@]4(C)CC[C@@H]1[C@]32OO4 [ART, Artemisinin]	>1.14	>1.38	–	–
Cc1ccc2c(c1)C(=O)C(=O)N2CCOC1O[C@@H]2O[C@@]3(C)CC[C@H]4[C@H](C)CC[C@@H]([C@H]1C)[C@@]24OO3 (stereo partly drawn) [Hybrid 6a, 5-Methyl-1-(2-(((3R,5aS,6R,8aS,9R,12R,12aR)-3,6,9-trimethyldecahydro-12H-3,12-epoxy[1,2]dioxepino[4,3-i]isochromen-10-yl)oxy)ethyl)indoline-2,3-dione]	0.80	0.92	–	–
Cc1ccc2c(c1)C(=NNC(N)=O)C(=O)N2CCOC1O[C@@H]2O[C@@]3(C)CC[C@H]4[C@H](C)CC[C@@H]([C@H]1C)[C@@]24OO3 (stereo partly drawn) [Hybrid 7d, 2-(5-Methyl-2-oxo-1-(2-(((3R,5aS,6R,8aS,9R,12R,12aR)-3,6,9-trimethyldecahydro-12H-3,12-epoxy[1,2]dioxepino[4,3-i]isochromen-10-yl)oxy)ethyl)indolin-3-ylidene)hydrazine-1-carboxamide]	1.22	1.10	–	–
Cc1ccc2c(c1)C(=O)C(=O)N2CCCCOC1O[C@@H]2O[C@@]3(C)CC[C@H]4[C@H](C)CC[C@@H]([C@H]1C)[C@@]24OO3 (stereo partly drawn) [Hybrid 6c, 5-Methyl-1-(4-(((3R,5aS,6R,8aS,9R,12R,12aR)-3,6,9-trimethyldecahydro-12H-3,12-epoxy[1,2]dioxepino[4,3-i]isochromen-10-yl)oxy)butyl)indoline-2,3-dione]	0.83	1.05	–	–
Cc1ccc2c(c1)C(=NO)C(=O)N2CCCCOC1O[C@@H]2O[C@@]3(C)CC[C@H]4[C@H](C)CC[C@@H]([C@H]1C)[C@@]24OO3 (stereo partly drawn) [Hybrid 7c, 3-(Hydroxyimino)-5-methyl-1-(4-(((3R,5aS,6R,8aS,9R,12R,12aR)-3,6,9-trimethyldecahydro-12H-3,12-epoxy[1,2]dioxepino[4,3-i]isochromen-10-yl)oxy)butyl)indolin-2-one]	1.06	1.07	–	–
Cc1ccc2c(c1)C(=O)C(=O)N2CCCOC1O[C@@H]2O[C@@]3(C)CC[C@H]4[C@H](C)CC[C@@H]([C@H]1C)[C@@]24OO3 (stereo partly drawn) [Hybrid 6b, 5-Methyl-1-(3-(((3R,5aS,6R,8aS,9R,12R,12aR)-3,6,9-trimethyldecahydro-12H-3,12-epoxy[1,2]dioxepino[4,3-i]isochromen-10-yl)oxy)propyl)indoline-2,3-dione]	<0.87	–	–	–
Cc1ccc2c(c1)C(=NO)C(=O)N2CCCOC1O[C@@H]2O[C@@]3(C)CC[C@H]4[C@H](C)CC[C@@H]([C@H]1C)[C@@]24OO3 (stereo partly drawn) [Hybrid 7b, 3-(Hydroxyimino)-5-methyl-1-(3-(((3R,5aS,6R,8aS,9R,12R,12aR)-3,6,9-trimethyldecahydro-12H-3,12-epoxy[1,2]dioxepino[4,3-i]isochromen-10-yl)oxy)propyl)indolin-2-one]	0.95	0.85	–	–
Cc1ccc2c(c1)C(=NO)C(=O)N2CCOC1O[C@@H]2O[C@@]3(C)CC[C@H]4[C@H](C)CC[C@@H]([C@H]1C)[C@@]24OO3 (stereo partly drawn) [Hybrid 7a, 3-(Hydroxyimino)-5-methyl-1-(2-(((3R,5aS,6R,8aS,9R,12R,12aR)-3,6,9-trimethyldecahydro-12H-3,12-epoxy[1,2]dioxepino[4,3-i]isochromen-10-yl)oxy)ethyl)indolin-2-one]	1.03	1.23	–	–
C[C@H]1[C@@H](O)O[C@@H]2O[C@@]3(C)CC[C@H]4[C@H](C)CC[C@@H]1[C@@]24OO3 [DHA, Dihydroartemisinin]	1.08	1.19	–	–
Cc1ccc2c(c1)C(=NNC(N)=O)C(=O)N2CCCCOC1O[C@@H]2O[C@@]3(C)CC[C@H]4[C@H](C)CC[C@@H]([C@H]1C)[C@@]24OO3 (stereo partly drawn) [Hybrid 7e, 2-(5-Methyl-2-oxo-1-(4-(((3R,5aS,6R,8aS,9R,12R,12aR)-3,6,9-trimethyldecahydro-12H-3,12-epoxy[1,2]dioxepino[4,3-i]isochromen-10-yl)oxy)butyl)indolin-3-ylidene)hydrazine-1-carboxamide]	1.08	1.11	–	–
Cc1ccc2c(c1)C(=NNC(N)=S)C(=O)N2CCCCOC1O[C@@H]2O[C@@]3(C)CC[C@H]4[C@H](C)CC[C@@H]([C@H]1C)[C@@]24OO3 (stereo partly drawn) [Hybrid 7g, 2-(5-Methyl-2-oxo-1-(4-(((3R,5aS,6R,8aS,9R,12R,12aR)-3,6,9-trimethyldecahydro-12H-3,12-epoxy[1,2]dioxepino[4,3-i]isochromen-10-yl)oxy)butyl)indolin-3-ylidene)hydrazine-1-carbothioamide]	1.05	1.16	–	–
3-(Methoxyimino)-1-(4-(((3R,5aS,6R,8aS,9R,12R,12aR)-3,6,9-trimethyldecahydro-12H-3,12-epoxy[1,2]dioxepino[4,3-i]isochromen-10-yl)oxy)butyl)indolin-2-one [Hybrid 7h]	0.91	1.09	>1.17	>1.35
